Measured values published in US20250188150A1, “PEPTIDES FOR THE TREATMENT OF FIBROSIS” (Technion Research & Development Foundation Limited, priority 2022, published 2025).
No constants are given. Whether binding was seen depends on the method and setting. Some binding calls cover weakened binding; strength is not graded here.

The chains behind the UniProt entries cited, without tags or fusion partners. Where a name states a change or a piece, a line headed by the entry shows the natural chain unless it says otherwise.
UniProt P02751: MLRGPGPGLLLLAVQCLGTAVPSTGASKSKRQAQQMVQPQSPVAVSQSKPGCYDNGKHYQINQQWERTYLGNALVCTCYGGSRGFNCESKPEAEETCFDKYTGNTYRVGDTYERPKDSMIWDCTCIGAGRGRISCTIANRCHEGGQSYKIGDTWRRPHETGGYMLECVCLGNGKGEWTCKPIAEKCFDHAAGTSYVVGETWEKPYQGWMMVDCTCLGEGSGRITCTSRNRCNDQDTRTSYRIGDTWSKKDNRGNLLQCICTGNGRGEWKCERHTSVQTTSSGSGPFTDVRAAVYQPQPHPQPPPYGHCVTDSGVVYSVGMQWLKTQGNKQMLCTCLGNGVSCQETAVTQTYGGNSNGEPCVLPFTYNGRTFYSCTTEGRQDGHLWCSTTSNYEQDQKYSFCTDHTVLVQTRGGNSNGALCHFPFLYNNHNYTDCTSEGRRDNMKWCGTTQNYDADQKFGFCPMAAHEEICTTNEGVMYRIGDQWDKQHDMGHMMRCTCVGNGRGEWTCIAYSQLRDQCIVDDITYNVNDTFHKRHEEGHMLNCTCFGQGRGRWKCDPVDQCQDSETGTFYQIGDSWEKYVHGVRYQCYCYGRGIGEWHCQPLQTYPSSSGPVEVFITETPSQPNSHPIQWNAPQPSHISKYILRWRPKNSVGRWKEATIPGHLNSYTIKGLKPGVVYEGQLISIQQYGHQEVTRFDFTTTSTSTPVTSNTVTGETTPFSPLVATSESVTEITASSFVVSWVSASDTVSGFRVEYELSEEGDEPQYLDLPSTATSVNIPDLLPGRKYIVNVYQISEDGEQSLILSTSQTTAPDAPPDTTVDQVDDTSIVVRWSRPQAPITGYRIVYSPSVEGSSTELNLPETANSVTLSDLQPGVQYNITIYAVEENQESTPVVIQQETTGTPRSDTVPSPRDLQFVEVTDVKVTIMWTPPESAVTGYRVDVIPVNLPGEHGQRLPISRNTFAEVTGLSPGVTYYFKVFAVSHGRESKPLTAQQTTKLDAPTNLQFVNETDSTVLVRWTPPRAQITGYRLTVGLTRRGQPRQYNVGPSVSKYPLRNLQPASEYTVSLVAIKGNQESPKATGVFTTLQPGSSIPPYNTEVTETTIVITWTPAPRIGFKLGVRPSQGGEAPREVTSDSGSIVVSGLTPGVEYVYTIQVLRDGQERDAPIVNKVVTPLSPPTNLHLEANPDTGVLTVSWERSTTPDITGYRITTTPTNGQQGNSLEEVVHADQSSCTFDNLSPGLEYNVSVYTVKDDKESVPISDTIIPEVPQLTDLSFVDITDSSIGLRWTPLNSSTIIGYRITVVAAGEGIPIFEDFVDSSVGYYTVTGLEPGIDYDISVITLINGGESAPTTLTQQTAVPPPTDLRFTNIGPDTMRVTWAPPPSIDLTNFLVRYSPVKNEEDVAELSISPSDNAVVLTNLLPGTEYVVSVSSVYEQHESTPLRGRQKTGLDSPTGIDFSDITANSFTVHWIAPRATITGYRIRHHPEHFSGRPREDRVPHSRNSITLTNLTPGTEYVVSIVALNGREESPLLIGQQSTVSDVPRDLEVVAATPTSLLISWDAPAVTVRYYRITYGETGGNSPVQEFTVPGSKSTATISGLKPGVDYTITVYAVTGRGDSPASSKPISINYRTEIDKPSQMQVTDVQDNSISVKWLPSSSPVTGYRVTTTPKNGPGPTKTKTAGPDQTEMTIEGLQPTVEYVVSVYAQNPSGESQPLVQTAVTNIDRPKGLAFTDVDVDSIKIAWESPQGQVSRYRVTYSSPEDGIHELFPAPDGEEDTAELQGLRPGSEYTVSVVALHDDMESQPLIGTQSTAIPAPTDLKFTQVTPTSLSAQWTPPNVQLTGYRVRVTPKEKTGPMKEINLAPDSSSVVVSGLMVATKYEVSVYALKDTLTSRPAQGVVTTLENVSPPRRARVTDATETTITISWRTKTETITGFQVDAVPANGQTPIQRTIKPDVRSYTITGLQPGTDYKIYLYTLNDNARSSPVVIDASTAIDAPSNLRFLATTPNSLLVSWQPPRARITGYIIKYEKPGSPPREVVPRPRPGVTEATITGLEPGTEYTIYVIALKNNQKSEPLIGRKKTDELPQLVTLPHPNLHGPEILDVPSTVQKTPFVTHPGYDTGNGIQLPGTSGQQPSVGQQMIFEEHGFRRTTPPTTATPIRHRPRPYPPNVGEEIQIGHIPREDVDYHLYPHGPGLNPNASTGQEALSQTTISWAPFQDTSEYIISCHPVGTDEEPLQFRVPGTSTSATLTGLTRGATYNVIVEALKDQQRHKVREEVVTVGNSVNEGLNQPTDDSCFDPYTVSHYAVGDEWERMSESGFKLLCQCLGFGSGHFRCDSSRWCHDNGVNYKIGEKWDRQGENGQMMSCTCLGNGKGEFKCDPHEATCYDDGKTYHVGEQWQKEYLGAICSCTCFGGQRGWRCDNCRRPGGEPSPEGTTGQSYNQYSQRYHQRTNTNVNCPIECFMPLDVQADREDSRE

Target: human plasma FN (hFN, Sigma-Aldrich, FC010-10MG) (human) (UniProt P02751)
Assay: quantification of LOXL3 on FN-coated glass after enzyme treatment and washes

B1: human recombinant LOXL3 (RhLOXL3, R&D systems, 6069-AO) (enzyme, UniProt P58215 26-753, looked up)
chain: SPSPSTGPEKKAGSQGLRFRLAGFPRKPYEGRVEIQRAGEWGTICDDDFTLQAAHILCRELGFTEATGWTHSAKYGPGTGRIWLDNLSCSGTEQSVTECASRGWGNSDCTHDEDAGVICKDQRLPGFSDSNVIEVEHHLQVEEVRIRPAVGWGRRPLPVTEGLVEVRLPDGWSQVCDKGWSAHNSHVVCGMLGFPSEKRVNAAFYRLLAQRQQHSFGLHGVACVGTEAHLSLCSLEFYRANDTARCPGGGPAVVSCVPGPVYAASSGQKKQQQSKPQGEARVRLKGGAHPGEGRVEVLKASTWGTVCDRKWDLHAASVVCRELGFGSAREALSGARMGQGMGAIHLSEVRCSGQELSLWKCPHKNITAEDCSHSQDAGVRCNLPYTGAETRIRLSGGRSQHEGRVEVQIGGPGPLRWGLICGDDWGTLEAMVACRQLGLGYANHGLQETWYWDSGNITEVVMSGVRCTGTELSLDQCAHHGTHITCKRTGTRFTAGVICSETASDLLLHSALVQETAYIEDRPLHMLYCAAEENCLASSARSANWPYGHRRLLRFSSQIHNLGRADFRPKAGRHSWVWHECHGHYHSMDIFTHYDILTPNGTKVAEGHKASFCLEDTECQEDVSKRYECANFGEQGITVGCWDLYRHDIDCQWIDITDVKPGNYILQVVINPNFEVAESDFTNNAMKCNCKYDGHRIWVHNCHIGDAFSEEANRRFERYPGQTSNQII
- binding: binds
